From patent US20200271647A1 (SEOUL NATIONAL UNIVERSITY HOSPITAL, published 2020)
These are yes or no findings as the source states them, for the method shown. Some results given as binding are weak or reduced against the parent protein; the word gives no strength.

Chains of the proteins cited; added tags and fusions are not shown. Residues count along the entry.
UniProt P08581, residues 25-932: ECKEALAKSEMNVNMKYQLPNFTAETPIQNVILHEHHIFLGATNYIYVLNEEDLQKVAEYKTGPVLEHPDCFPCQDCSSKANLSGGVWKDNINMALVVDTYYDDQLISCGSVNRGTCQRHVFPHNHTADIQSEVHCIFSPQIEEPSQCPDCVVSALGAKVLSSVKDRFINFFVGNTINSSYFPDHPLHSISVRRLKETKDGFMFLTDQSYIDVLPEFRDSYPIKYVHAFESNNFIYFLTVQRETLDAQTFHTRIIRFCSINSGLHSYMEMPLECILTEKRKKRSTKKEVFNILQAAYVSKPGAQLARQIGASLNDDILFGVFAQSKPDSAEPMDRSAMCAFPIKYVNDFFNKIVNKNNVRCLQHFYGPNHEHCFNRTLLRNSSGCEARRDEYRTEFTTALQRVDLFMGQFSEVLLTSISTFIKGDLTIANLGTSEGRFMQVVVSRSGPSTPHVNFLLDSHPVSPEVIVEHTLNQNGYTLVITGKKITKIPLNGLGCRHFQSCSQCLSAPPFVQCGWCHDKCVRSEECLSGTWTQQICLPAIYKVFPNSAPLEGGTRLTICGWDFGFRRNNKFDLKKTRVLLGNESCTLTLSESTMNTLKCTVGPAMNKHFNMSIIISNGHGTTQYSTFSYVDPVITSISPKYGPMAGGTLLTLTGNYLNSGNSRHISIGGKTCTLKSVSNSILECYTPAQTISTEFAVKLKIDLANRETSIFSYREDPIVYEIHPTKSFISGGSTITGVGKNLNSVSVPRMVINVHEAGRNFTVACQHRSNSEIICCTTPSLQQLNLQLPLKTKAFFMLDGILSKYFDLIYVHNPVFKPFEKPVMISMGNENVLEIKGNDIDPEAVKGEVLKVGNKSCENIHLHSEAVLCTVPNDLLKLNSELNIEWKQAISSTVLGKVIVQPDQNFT

B1: VH4/Vk2 (antibody, V domains shown)
VH: QVQLVQSGAEVKKPGSSVKVSCQGSGYSFPTHWITWVRQAPGQGLEWMGTIDPTDSYNFYGPSFQGRVTITADSSTSTAYMELSSLRSEDTAMYYCARDGNYYDSRGYYYDTFDMWGQGTLVTVSS
VL: DIQMTQSPSSLSASVGDRVTITCRASQGISTYLAWYQQKPGKAPKLLIYSASTLESGVPSRFSGSGSGTDFTLTISSLQPEDFATYYCQQADSFPLTFGGGTKVEIK
notes: CDR-grafted variant of the IgG1-based anti-cMet antibody 1E4; also called anti-cMet candidate antibody VH4/Vk2
B2: VH5/Vk2 (antibody, V domains shown)
VH: QVQLVQSGAEVKKPGSSVKVSCQGSGYSFPTHWITWVRQAPGQGLEWMGTIDPTDSYNFYGPSFQGRVTITADSSTSTAYMELSSLRSEDTAVYYCARDGNYYDSRGYYYDTFDMWGQGTLVTVSS
VL: DIQMTQSPSSLSASVGDRVTITCRASQGISTYLAWYQQKPGKAPKLLIYSASTLESGVPSRFSGSGSGTDFTLTISSLQPEDFATYYCQQADSFPLTFGGGTKVEIK
notes: CDR-grafted variant of the IgG1-based anti-cMet antibody 1E4; also called anti-cMet candidate antibody VH5/Vk2
B3: VH6/Vk2 (antibody, V domains shown)
VH: QVQLVQSGAEVKKPGSSVKVSCKASGYSFPTHWITWVRQAPGQGLEWMGTIDPTDSYNFYGPSFQGRVTITADKSTSTAYMELSSLRSEDTAVYYCARDGNYYDSRGYYYDTFDMWGQGTLVTVSS
VL: DIQMTQSPSSLSASVGDRVTITCRASQGISTYLAWYQQKPGKAPKLLIYSASTLESGVPSRFSGSGSGTDFTLTISSLQPEDFATYYCQQADSFPLTFGGGTKVEIK
notes: CDR-grafted variant of the IgG1-based anti-cMet antibody 1E4; also called anti-cMet candidate antibody VH6/Vk2
B4: VH0/Vk2 (antibody, V domains shown)
VH: QVQLVQSGAEVKKPGESLRISCQGSGYSFPTHWITWVRQMPGKGLEWMGTIDPTDSYNFYGPSFQGHVTISADSSSSTAYLQWSSLKASDTAMYYCARDGNYYDSRGYYYDTFDMWGQGTLVTVSS
VL: DIQMTQSPSSLSASVGDRVTITCRASQGISTYLAWYQQKPGKAPKLLIYSASTLESGVPSRFSGSGSGTDFTLTISSLQPEDFATYYCQQADSFPLTFGGGTKVEIK
notes: also called anti-cMet candidate antibody VH0/Vk2

The binders below were run against T1, human c-Met antigen (Sino Biological) (human, UniProt P08581 25-932) (assay: SPR (BIACORE T200)).
T1 construct: Bought antigen used as the analyte in SPR; also called hepatocyte growth factor receptor; HGFR

binding, binds:
B1
B2
B3
B4
